{"source": "patent US20240059738A1", "about": "“SWITCHING PEPTIDE AND MULTIPLEX IMMUNOASSAY METHOD USING SAME” (OPTOLANE TECHNOLOGIES INC., priority 2021, published 2024)", "system": "carcinoembryonic antigen (CEA)", "test": "One-step immunoassay of carcinoembryonic antigen using L1 peptide (FIGS. 9A-9B)", "data": [{"sequence": "TYLEWYPQKPGQSPKLLIYK [L1, TYLEW YPQKP GQSPK LLIYK]", "values": [{"measurement": "limit of detection (LOD)", "setting": "fluorescence measured from transferred solution", "result": 34.7, "unit": "ng/mL"}, {"measurement": "limit of detection (LOD)", "setting": "fluorescence measured in microplate well state", "result": "about 33.6 ng/ml"}]}]}
